Measurements taken from paper PMC8533325.

Protein sequences, listed by entry. Tags and fused reporters are not part of them. Lines headed by an entry give the natural chain unless they say otherwise; changes in a name come on top.
UniProt Q9H668: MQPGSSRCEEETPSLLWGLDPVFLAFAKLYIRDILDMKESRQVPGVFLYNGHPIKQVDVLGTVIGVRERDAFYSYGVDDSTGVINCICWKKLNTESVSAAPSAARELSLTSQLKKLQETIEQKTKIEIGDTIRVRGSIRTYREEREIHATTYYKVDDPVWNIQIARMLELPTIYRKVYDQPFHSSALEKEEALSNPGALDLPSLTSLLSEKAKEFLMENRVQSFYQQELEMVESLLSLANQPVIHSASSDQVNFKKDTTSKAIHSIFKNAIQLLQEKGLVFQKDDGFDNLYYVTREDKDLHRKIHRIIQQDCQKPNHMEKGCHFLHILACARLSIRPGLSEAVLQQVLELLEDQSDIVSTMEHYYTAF
UniProt P09884: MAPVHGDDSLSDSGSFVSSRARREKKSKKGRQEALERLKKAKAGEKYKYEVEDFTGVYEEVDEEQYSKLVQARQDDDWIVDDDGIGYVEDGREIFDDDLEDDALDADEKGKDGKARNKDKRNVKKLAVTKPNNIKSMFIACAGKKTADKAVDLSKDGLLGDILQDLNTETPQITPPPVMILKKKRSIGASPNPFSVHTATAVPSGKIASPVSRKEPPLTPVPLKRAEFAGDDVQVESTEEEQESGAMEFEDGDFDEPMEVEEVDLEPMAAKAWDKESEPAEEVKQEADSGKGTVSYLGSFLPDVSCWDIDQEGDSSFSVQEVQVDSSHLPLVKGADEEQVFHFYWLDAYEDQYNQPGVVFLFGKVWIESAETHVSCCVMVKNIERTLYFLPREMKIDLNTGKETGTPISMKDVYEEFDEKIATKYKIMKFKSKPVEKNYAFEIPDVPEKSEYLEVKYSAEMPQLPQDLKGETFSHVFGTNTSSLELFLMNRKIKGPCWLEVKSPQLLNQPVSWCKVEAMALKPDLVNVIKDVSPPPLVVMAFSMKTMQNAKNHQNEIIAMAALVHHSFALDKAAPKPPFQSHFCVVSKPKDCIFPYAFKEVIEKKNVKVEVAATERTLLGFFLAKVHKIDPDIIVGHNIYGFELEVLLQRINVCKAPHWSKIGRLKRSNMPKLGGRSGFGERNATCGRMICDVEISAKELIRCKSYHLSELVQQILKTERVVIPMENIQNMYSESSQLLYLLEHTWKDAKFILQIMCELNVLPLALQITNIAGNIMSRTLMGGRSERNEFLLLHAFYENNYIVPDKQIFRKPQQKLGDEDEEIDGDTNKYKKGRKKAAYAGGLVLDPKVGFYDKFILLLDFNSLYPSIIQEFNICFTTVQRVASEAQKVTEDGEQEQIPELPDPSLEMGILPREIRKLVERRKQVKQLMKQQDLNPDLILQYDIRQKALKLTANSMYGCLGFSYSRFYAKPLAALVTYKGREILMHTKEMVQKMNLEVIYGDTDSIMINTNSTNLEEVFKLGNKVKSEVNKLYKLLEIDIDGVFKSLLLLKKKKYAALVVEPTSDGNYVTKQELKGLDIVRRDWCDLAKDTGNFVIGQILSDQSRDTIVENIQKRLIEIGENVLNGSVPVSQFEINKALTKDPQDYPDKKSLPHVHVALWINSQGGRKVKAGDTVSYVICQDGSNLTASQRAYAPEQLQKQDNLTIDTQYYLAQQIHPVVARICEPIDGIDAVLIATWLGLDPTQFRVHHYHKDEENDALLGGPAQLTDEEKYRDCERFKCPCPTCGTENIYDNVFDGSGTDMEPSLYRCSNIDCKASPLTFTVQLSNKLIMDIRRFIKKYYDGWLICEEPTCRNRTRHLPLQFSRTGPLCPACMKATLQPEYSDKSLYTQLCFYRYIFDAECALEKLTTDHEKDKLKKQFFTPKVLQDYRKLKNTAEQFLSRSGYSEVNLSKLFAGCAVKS

Target: Myc-STN1 ΔIDR (human) (UniProt Q9H668)
Experiment: co-IP; HEK293T cells co-transfected with Flag-CTC1, HA-TEN1 and WT or mutant Myc-STN1, treated with or without HU (2 mM; 16 h or 24 h); lysis in 0.1% NP-40, 50 mM Tris-HCl pH 7.4, 50 mM NaCl, 2 mM DTT; anti-Myc immunoprecipitation overnight at 4 °C; Western blot

Molecule	binding
POLA1 (from UniProt P09884 1-1462)	binds
Flag-CTC1 (protein, UniProt Q2NKJ3 1-1217) MAAGRAQVPSSEQAWLEDAQVFIQKTLCPAVKEPNVQLTPLVIDCVKTVWLSQGRNQGSTLPLSYSFVSVQDLKTHQRLPCCSHLSWSSSAYQAWAQEAGPNGNPLPREQLLLLGTLTDLSADLEQECRNGSLYVRDNTGVLSCELIDLDLSWLGHLFLFPRWSYLPPARWNSSGEGHLELWDAPVPVFPLTISPGPVTPIPVLYPESASCLLRLRNKLRGVQRNLAGSLVRLSALVKSKQKAYFILSLGRSHPAVTHVSIIVQVPAQLVWHRALRPGTAYVLTELRVSKIRGQRQHVWMTSQSSRLLLLKPECVQELELELEGPLLEADPKPLPMPSNSEDKKDPESLVRYSRLLSYSGAVTGVLNEPAGLYELDGQLGLCLAYQQFRGLRRVMRPGVCLQLQDVHLLQSVGGGTRRPVLAPCLRGAVLLQSFSRQKPGAHSSRQAYGASLYEQLVWERQLGLPLYLWATKALEELACKLCPHVLRHHQFLQHSSPGSPSLGLQLLAPTLDLLAPPGSPVRNAHNEILEEPHHCPLQKYTRLQTPSSFPTLATLKEEGQRKAWASFDPKALLPLPEASYLPSCQLNRRLAWSWLCLLPSAFCPAQVLLGVLVASSHKGCLQLRDQSGSLPCLLLAKHSQPLSDPRLIGCLVRAERFQLIVERDVRSSFPSWKELSMPGFIQKQQARVYVQFFLADALILPVPRPCLHSATPSTPQTDPTGPEGPHLGQSRLFLLCHKEALMKRNFCVPPGASPEVPKPALSFYVLGSWLGGTQRKEGTGWGLPEPQGNDDNDQKVHLIFFGSSVRWFEFLHPGQVYRLIAPGPATPMLFEKDGSSCISRRPLELAGCASCLTVQDNWTLELESSQDIQDVLDANKSLPESSLTDLLSDNFTDSLVSFSAEILSRTLCEPLVASLWMKLGNTGAMRRCVKLTVALETAECEFPPHLDVYIEDPHLPPSLGLLPGARVHFSQLEKRVSRSHNVYCCFRSSTYVQVLSFPPETTISIPLPHIYLAELLQGGQSPFQATASCHIVSVFSLQLFWVCAYCTSICRQGKCTRLGSTCPTQTAISQAIIRLLVEDGTAEAVVTCRNHHVAAALGLCPREWASLLDFVQVPGRVVLQFAGPGAQLESSARVDEPMTMFLWTLCTSPSVLRPIVLSFELERKPSKIVPLEPPRLQRFQCGELPFLTHVNPRLRLSCLSIRESEYSSSLGILASSC	binds
HA-TEN1 (protein, UniProt Q86WV5 1-123) MMLPKPGTYYLPWEVSAGQVPDGSTLRTFGRLCLYDMIQSRVTLMAQHGSDQHQVLVCTKLVEPFHAQVGSLYIVLGELQHQQDRGSVVKARVLTCVEGMNLPLLEQAIREQRLYKQERGGSQ	binds

Results are given in words; binding and its absence hold for the method and conditions named. In cells and extracts the contact can be indirect. Binding can be weak; no strength is given. Where a sequence is shown, tags or fusion partners need not be part of it.
